# Results as given in the supplement of paper PMC6411743.
# ± gives the standard deviation of the averaged measurements. The list shows a part of the results, in another mix than the full data.
# Assays:
# Assay in all cases: NP40-soluble protein abundance relative to vehicle (solubility fold change) (ratio); higher = more soluble protein in presence of ATP
# [1] = molecular target: T1, UniProt P31350 and related entries
# T1 sequence (whole entry): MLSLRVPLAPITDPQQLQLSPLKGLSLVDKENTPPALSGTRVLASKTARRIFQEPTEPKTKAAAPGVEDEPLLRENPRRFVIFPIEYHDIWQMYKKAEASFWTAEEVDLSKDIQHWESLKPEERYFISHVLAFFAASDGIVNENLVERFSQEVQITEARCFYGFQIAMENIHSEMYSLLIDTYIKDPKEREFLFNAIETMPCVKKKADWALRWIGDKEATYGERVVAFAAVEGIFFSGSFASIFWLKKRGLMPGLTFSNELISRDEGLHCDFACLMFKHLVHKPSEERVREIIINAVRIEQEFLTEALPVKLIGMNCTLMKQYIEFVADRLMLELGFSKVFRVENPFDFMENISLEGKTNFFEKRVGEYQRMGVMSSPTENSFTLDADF
# Summary of the method: (§1)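 Jurkat crude lysate (Dounce-homogenised) was treated with eight concentrations from 0.1 to 10 mM for 10 min at room temperature, then 3 min at 37 °C. It was solubilised with 0.8% NP40 and benzonase (60 min, 4 °C) and ultracentrifuged, and the supernatant was TMT-labelled for LC-MS/MS. Intensities were vsn-normalised, and the value is the fold change against the NP40-processed vehicle per replicate, from three independent experiments.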
# [2] = molecular target: T2, UniProt P32856 and related entries
# T2 sequence (whole entry): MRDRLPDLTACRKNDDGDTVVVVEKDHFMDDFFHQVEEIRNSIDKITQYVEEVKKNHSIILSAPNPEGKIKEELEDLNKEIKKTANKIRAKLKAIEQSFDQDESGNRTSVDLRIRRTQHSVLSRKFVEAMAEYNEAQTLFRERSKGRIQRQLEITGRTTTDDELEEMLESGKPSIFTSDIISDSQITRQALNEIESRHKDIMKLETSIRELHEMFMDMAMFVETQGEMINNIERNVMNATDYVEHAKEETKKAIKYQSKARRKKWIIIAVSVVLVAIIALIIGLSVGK
# Summary of the method: as §1
# [3] = molecular target: T3, UniProt P33121 and related entries
# T3 sequence (whole entry): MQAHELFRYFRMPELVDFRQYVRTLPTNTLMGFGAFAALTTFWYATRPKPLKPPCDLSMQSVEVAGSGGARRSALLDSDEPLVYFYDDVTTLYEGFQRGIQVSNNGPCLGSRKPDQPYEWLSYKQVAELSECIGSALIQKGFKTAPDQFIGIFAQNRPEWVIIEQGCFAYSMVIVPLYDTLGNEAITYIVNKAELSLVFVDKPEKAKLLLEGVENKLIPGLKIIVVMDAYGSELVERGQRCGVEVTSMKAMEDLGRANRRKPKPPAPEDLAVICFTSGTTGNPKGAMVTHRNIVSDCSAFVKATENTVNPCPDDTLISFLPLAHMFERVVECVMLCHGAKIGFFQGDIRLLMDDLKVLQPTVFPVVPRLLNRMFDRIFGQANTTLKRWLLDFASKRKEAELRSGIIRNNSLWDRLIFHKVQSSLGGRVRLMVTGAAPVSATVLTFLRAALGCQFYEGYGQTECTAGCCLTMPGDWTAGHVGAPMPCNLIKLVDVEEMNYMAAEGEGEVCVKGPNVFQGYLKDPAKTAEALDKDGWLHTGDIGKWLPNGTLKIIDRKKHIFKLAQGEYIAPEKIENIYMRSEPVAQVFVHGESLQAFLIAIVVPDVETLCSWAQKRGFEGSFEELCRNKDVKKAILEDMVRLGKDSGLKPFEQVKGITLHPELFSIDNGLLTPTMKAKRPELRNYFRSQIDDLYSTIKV
# Summary of the method: as §1
# [4] = molecular target: T4, UniProt P35613 and related entries
# T4 sequence (whole entry): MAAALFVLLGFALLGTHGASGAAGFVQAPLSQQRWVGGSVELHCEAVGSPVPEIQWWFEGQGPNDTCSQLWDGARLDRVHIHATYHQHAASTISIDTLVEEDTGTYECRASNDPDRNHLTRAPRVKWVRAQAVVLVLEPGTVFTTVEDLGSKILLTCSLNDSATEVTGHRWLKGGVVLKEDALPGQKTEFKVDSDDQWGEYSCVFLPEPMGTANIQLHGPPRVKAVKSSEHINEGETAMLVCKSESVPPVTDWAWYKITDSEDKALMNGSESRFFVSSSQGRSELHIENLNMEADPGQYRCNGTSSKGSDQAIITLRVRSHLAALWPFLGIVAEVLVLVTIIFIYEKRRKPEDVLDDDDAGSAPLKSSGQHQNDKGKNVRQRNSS
# Summary of the method: as §1
# UniProt P35626 = molecular target: T5, UniProt P35626
# T5 sequence (whole entry): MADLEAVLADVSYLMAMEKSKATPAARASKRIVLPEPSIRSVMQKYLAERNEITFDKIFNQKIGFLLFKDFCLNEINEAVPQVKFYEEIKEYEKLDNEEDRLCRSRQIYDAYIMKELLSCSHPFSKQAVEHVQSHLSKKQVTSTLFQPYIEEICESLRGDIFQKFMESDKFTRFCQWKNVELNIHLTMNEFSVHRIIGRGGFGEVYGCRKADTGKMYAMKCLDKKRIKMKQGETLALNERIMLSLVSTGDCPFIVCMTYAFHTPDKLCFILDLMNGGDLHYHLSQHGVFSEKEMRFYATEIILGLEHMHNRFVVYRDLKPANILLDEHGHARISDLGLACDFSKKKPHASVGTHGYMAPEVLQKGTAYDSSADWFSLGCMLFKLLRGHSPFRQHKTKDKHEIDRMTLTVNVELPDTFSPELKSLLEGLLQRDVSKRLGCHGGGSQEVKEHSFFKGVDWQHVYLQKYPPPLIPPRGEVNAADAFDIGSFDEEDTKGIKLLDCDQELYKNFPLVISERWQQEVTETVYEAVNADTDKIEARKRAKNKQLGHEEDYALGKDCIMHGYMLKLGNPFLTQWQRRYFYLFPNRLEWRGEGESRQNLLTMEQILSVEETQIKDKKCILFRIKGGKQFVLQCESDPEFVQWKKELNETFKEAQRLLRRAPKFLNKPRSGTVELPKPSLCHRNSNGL
# Summary of the method: as §1
# YWHAB = molecular target: T6, YWHAB (UniProt P31946)
# T6 sequence (whole entry): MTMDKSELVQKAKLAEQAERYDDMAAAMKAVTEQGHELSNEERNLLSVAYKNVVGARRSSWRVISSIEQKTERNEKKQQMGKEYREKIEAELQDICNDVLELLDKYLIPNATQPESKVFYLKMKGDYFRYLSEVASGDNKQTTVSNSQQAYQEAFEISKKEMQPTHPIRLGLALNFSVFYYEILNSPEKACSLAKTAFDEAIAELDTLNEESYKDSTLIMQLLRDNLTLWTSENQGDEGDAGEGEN
# Summary of the method: as §1
structure (smiles),measurement,setting,value
Nc1ncnc2c1ncn2[C@@H]1O[C@H](COP(=O)(O)OP(=O)(O)OP(=O)(O)O)[C@@H](O)[C@H]1O [adenosine triphosphate],NP40-soluble protein abundance,[1]; concentration: 1mM,1.04 ± 0.15
same,NP40-soluble protein abundance,[1]; concentration: 2mM,1.04 ± 0.14
same,NP40-soluble protein abundance,[1]; concentration: 4mM,1.03 ± 0.13
same,NP40-soluble protein abundance,[1]; concentration: 6mM,0.984 ± 0.15
same,NP40-soluble protein abundance,[1]; concentration: 8mM,1.03 ± 0.14
same,NP40-soluble protein abundance,[1]; concentration: 10mM,0.998 ± 0.088
same,NP40-soluble protein abundance,[2]; concentration: 1mM,1.02 ± 0.013
same,NP40-soluble protein abundance,[2]; concentration: 2mM,1.01 ± 0.03
same,NP40-soluble protein abundance,[2]; concentration: 4mM,1.01 ± 0.028
same,NP40-soluble protein abundance,[2]; concentration: 6mM,1.03 ± 0.047
same,NP40-soluble protein abundance,[2]; concentration: 8mM,1.003 ± 0.0046
same,NP40-soluble protein abundance,[2]; concentration: 10mM,0.9941 ± 0.008
same,NP40-soluble protein abundance,[3]; concentration: 1mM,1.06 ± 0.092
same,NP40-soluble protein abundance,[3]; concentration: 2mM,1.02 ± 0.085
same,NP40-soluble protein abundance,[3]; concentration: 4mM,1.03 ± 0.091
same,NP40-soluble protein abundance,[3]; concentration: 6mM,1.01 ± 0.12
same,NP40-soluble protein abundance,[3]; concentration: 8mM,1.03 ± 0.095
same,NP40-soluble protein abundance,[3]; concentration: 10mM,1.02 ± 0.07
same,NP40-soluble protein abundance,[4]; concentration: 1mM,0.943 ± 0.064
same,NP40-soluble protein abundance,[4]; concentration: 2mM,0.943 ± 0.021
same,NP40-soluble protein abundance,[4]; concentration: 4mM,0.936 ± 0.065
same,NP40-soluble protein abundance,[4]; concentration: 6mM,0.972 ± 0.011
same,NP40-soluble protein abundance,[4]; concentration: 8mM,0.935 ± 0.069
same,NP40-soluble protein abundance,[4]; concentration: 10mM,0.877 ± 0.081
same,NP40-soluble protein abundance,UniProt P35626; concentration: 1mM,1.06 ± 0.053
same,NP40-soluble protein abundance,UniProt P35626; concentration: 2mM,1.03 ± 0.048
same,NP40-soluble protein abundance,UniProt P35626; concentration: 4mM,1.05 ± 0.033
same,NP40-soluble protein abundance,UniProt P35626; concentration: 6mM,1.02 ± 0.046
same,NP40-soluble protein abundance,UniProt P35626; concentration: 8mM,1.05 ± 0.015
same,NP40-soluble protein abundance,UniProt P35626; concentration: 10mM,1.02 ± 0.035
same,NP40-soluble protein abundance,YWHAB; concentration: 1mM,0.998 ± 0.13
same,NP40-soluble protein abundance,YWHAB; concentration: 2mM,0.947 ± 0.062
same,NP40-soluble protein abundance,YWHAB; concentration: 4mM,0.936 ± 0.034
same,NP40-soluble protein abundance,YWHAB; concentration: 6mM,0.989 ± 0.088
same,NP40-soluble protein abundance,YWHAB; concentration: 8mM,0.925 ± 0.027
same,NP40-soluble protein abundance,YWHAB; concentration: 10mM,0.842 ± 0.075

# Copied from the results shown (three entries):
structure (smiles),measurement,setting,value
Nc1ncnc2c1ncn2[C@@H]1O[C@H](COP(=O)(O)OP(=O)(O)OP(=O)(O)O)[C@@H](O)[C@H]1O [adenosine triphosphate],NP40-soluble protein abundance,UniProt P35626; concentration: 6mM,1.02 ± 0.046
same,NP40-soluble protein abundance,UniProt P35626; concentration: 8mM,1.05 ± 0.015
same,NP40-soluble protein abundance,UniProt P35626; concentration: 10mM,1.02 ± 0.035
